Measurements as given in article PMC10654033.
These are yes or no findings as the source states them, for the method shown.

Protein sequences, listed by entry. Tags and fused reporters are not part of them. Residues count along the entry.
UniProt P02768, residues 25-609: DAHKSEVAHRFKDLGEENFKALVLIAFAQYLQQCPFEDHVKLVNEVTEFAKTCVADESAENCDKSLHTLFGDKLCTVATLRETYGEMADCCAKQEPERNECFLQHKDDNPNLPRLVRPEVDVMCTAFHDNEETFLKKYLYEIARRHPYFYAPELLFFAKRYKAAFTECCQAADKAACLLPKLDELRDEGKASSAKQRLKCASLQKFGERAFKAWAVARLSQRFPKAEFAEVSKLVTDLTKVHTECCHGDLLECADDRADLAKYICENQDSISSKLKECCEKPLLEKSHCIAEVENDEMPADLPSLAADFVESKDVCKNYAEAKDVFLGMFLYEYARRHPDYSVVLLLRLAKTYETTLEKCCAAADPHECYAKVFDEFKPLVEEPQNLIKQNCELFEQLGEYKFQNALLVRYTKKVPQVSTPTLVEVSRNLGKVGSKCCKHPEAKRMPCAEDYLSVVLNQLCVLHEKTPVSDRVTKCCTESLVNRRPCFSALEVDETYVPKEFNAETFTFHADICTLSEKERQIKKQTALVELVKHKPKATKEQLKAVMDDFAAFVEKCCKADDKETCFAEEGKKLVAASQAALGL

Target: human serum albumin (human) (UniProt P02768)
Assay: far-Western, overlay or dot blot; slot binding: IdeS and HSA applied in slots to a PVDF membrane, probed with 125I-labeled SpnA (0.4–0.8 μg/ml) in Tris-buffered saline (0.05 M Tris–HCl, pH 7.5, 0.15 M NaCl) with 3% bovine serum albumin, 3 h at room temperature or 4 °C overnight; both purified

B1: 125I-labeled SpnA (recombinant, residues Val25 to Leu876) (enzyme, UniProt Q9A0J7 25-876)
chain: VTSRQNLTYANEIVTQRPKRESVISDKSNFPVISPYLASVDFGERKTPLPTPDKGVKVTTEQSIAQVRKGPEERPYTVTGKITSVINGWGGYGFYIQDSEGIGLYVYPQKDLGYSKGDIVQLTGTLTRFKGDLQLQQVTAHKKLELSFPTSVKEAVISELETTTPSTLVKLSHVTVGELSTDQYNNTSFLVRDDSGKSIVVHIDHRTGVKGADVVTKISQGDLINLTAILSIVDGQLQLRPFSLEQLEVVKKVTSSNSDASSRNIVKIGEIQGASHTSPLLKKAVTVEQVVVTYLDDSTHFYVQDLNGDGDLATSDGIRVFAKNAKVQVGDVLTISGEVEEFFGRGYEERKQTDLTITQIVAKAVTKTGTAQVPSPLVLGKDRIAPANIIDNDGLRVFDPEEDAIDYWESMEGMLVAVDDAKILGPMKNKEIYVLPGSSTRPLNNSGGVLLPANSYNTDVIPVLFKKGKQIIKAGDSYKGRLAGPVSYSYGNYKVFVDDSKNMPSLMDGHLKPEKTNLQKDLSKLSIASYNIENFSANPSSTKDEKVKRIAESFIHDLNAPDIIGLIEVQDNNGPTDDGTTDATQSAQRLIDAIKKLGGPTYRYVDIAPENNVDGGQPGGNIRTGFLYQPERVSLSDKPKGGARDALTWVNGELNLSVGRIDPTNAAWKDVRKSLAAEFIFQGRKVVVVANHLNSKRGDNALYGCVQPVTFKSEQRRHVLANMLAQFAKEGAKHQANIVMLGDFNDFEFTKTIQLIEEGDMVNLVSRHDISDRYSYFHQGNNQTLDNILVSRHLLDHYEFDMVHVNSPFMEAHGRASDHDPLLLQLSFSKENDKAESSKQSVKAKKTSKGKL
modifications: 125I radiolabel (IODO-BEAD iodination reagent)
In the case of B1, the binding is reported as “no binding (tested: 0.4–0.8 μg/ml 125I-labeled SpnA)”.
